Assay results taken from article PMC12974444.
These are yes or no findings as the source states them, for the method shown. In cells and extracts the contact can be indirect. Some entries that bind do so weakly or less than the wild type. Where a sequence is shown, tags or fusion partners need not be part of it.

Target: T1, endogenous FLAG-Strep-Med19 fusion (rat (endogenous in INS-1)) (UniProt D3ZAP1)
T1 sequence: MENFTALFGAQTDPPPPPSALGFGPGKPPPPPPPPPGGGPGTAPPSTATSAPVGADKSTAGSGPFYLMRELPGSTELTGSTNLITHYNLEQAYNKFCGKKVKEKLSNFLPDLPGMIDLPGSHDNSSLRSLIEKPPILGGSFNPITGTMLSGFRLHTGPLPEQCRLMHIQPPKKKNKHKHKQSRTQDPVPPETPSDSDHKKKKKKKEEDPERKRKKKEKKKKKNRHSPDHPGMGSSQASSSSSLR
Test: co-IP; FLAG immunoprecipitation of endogenous FLAG-Med19 from INS-1 extracts (Med14 WT and Med14 S983A Crispr knock-in lines; control, FSK, H-89, Ex-4, Semaglutide or Tirzepatide treatment), western blot of the immunoprecipitates

B1: Cdk8 (protein, UniProt A0A8I5ZVW8 1-507)
chain: MDYDFKVKLSSERERVEDLFEYEGCKVGRGTYGHVYKAKRKDGKDDKDYALKQIEGTGISMSACREIALLRELKHPNVISLQKVFLSHADRKVWLLFDYAEHDLWHIIKFHRASKANKKPVQLPRGMVKSLLYQILDGIHYLHANWVLHRDLKPANILVMGEGPERGRVKIADMGFARLFNSPLKPLADLDPVVVTFWYRAPELLLGARHYTKAIDIWAIGCIFAELLTSEPIFHCRQEDIKTSNPYHHDQLDRIFNVMGFPADKDWEDIKKMPEHSTLMKDFRRNTYTNCSLIKYMEKHKVKPDSKAFHLLQKLLTMDPIKRITSEQAMQDPYFLEDPLPTSDVFAGCQIPYPKREFLTEEEPDEKGDKKNQQQQQGNNHTNGTGHPGNQDSGHAQGPPLKKVRVVPPTTTSAFQSTCCLSQPWTKHITAPEQHGILSYLPAASTVLTSDTSVLSCAGVCPCTVAHAAGLAAALCGNLVWAMRMYCTTTSSQCPVAEFHSCHRSGR
binding: binds
